From PubChem BioAssay AID2685 (National Center for Advancing Translational Sciences (NCATS), 2010)
The other results are listed elsewhere or left out. The main result of the screen is listed elsewhere. These columns were measured beside it and carry no call. Compounds called inactive in the main read-out are mostly missing here. Potencies come from curve fits of mixed quality, noted in brackets.

Assay: qHTS Assay for Lipid Storage Modulators in Drosophila S3 Cells;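 as to cell number change: cells counted by Cell Tracker Red CMTPX staining in the red channel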
Conditions: BODIPY lipid droplet fluorescence, 18-24 h; for cell number change: measured here: cell count max response, cells fed with added oleic acid
Procedure, shortened: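 Drosophila S3 cells loaded with oleic acid (400 uM, as added) and compounds at several concentrations; lipid droplets imaged by 488-nm laser-scanning cytometry, 500–530 nm intensity and object ratio to cell channel. Percent activity normalized to 20 uM Triacsin C.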

[1] = measured here: lipid fluorescence (Fed channel) AC50, cells fed with added oleic acid
[2] = measured here: cell number channel AC50, cells fed with added oleic acid

Row | Compound | cell number change | AC50 [1] | AC50 [2]
1 | COc1cccc([C@@H]2CC=C(C(=O)O)[C@H](c3ccccc3)N2S(=O)(=O)c2ccc(C)cc2)c1 | 21.2% | 0.651 µM [rising, single point] | –
2 | COc1cc(OC)c(C2SCCCS2)cc1OC | 2.9% | 8.2 µM [rising, partial curve] | –
3 | CCCc1nnc(NC(=O)CC(C)c2ccccc2)s1 (stereo not drawn) | 25.3% | 6.51 µM [rising, single point] | –
4 | COC(=O)Cn1cnc2c(nnn2-c2ccc(OC)cc2)c1=O | -0.37% | – | –
5 | O=C1CCCN2N=C(SCC(=O)Nc3ccc(F)cc3F)SC2=N1 | -0.952% | 6.51 µM [falling, partial curve] | 0.231 µM [falling, full curve, poor fit]
6 | Cc1n[nH]c(=S)n1/N=C/c1ccccc1OCc1ccc(Cl)cc1 | -3.71% | 20.6 µM [falling, partial curve, poor fit] | –
7 | CCOc1ccccc1NC(=O)NCCCCc1ccccc1 | -47.5% | 11.2 µM [falling, partial curve] | 22.4 µM [falling, single point]
8 | Cc1ccc(SCC(=O)Nc2oc(C)c3c(C)n[nH]c(=O)c23)cc1C | 30.6% | 23.1 µM [rising, single point] | 20.6 µM [rising, single point]
9 | Cc1ccc(CN2CCN(Cc3cnc(N(C)C)s3)CC2CCO)o1 (stereo not drawn) | 0.141% | 3.26 µM [falling, single point] | –
10 | O=S1(=O)CCN(Cc2ccc(Cl)c(C(F)(F)F)c2)CC1 | 37.9% | – | 0.651 µM [falling, single point]
11 | Nc1nc(CSCCO)nc(Nc2ccccc2)n1 | 20% | – | –
12 | O=C(NCc1ccccn1)c1cc(-c2ccccc2)nc2ccccc12 | 11.5% | 0.0517 µM [rising, partial curve, poor fit] | –
13 | COc1ccc(NC(=S)N2CCCC2)cc1OC | -41.2% | – | –
14 | C=CC[n+]1c(-c2ccc(C)cc2)csc1Nc1ccc(NC(C)=O)cc1 | – | – | 0.116 µM [rising, single point]
15 | O=C(Cn1ccc2ccccc2c1=O)NCCC(=O)N1CCN(C2CCCCC2)CC1 | -106% | 29.1 µM [falling, single point] | 8.2 µM [falling, partial curve]
16 | COCCCNC(=O)CN1C(=O)c2ccccc2C1=O | -34.2% | 2.31 µM [falling, full curve] | 1.46 µM [falling, full curve]
17 | Cc1ccc(S(=O)(=O)N2CCN(c3ccc(C(=O)N4CCOCC4)cc3[N+](=O)[O-])CC2)cc1 | -17.6% | 20.6 µM [falling, partial curve] | –
18 | COc1ccc(CNC(=O)CN(C(=O)c2csnn2)c2cccc3ccccc23)cc1 | 28.2% | 29.1 µM [rising, single point] | 0.00517 µM [rising, full curve, poor fit]
19 | CCOC(=O)c1ccc(NC(=O)c2cccc(S(=O)(=O)N3CCN(C(C)=O)CC3)c2)cc1 | -23.7% | 5.62 µM [falling, single point] | –
20 | Cc1ccc(C(=O)NCC(=O)OCCCn2c(=O)[nH]c3ccccc32)cc1 | -15.3% | – | –
21 | O=C(CSc1nnc(-c2ccccc2Br)o1)N1CCN(C(=O)c2ccco2)CC1 | -23.9% | 0.00461 µM [rising, full curve, poor fit] | –

Row | Compound | cell number change | AC50 [1] | AC50 [2]
22 | COc1cccc(-c2ccc3c(c2)S(=O)(=O)c2cccc(C(=O)O)c2C3=O)c1OC | – | 0.82 µM [falling, partial curve] | –
23 | CN(CC1CCOCC1)C(=O)c1ccc2nc(Cc3cccc(Cl)c3)oc2c1 | -1.76% | 1.84 µM [falling, single point] | –
24 | Cc1ccc(N/C=C2\C(=O)C3(C)CCC2C3(C)C)cc1C (stereo not drawn) | 23.9% | 1.03 µM [rising, full curve] | –
25 | Cc1c(S(=O)(=O)Nc2ccc(Br)cc2)c(=O)n(C)c(=O)n1C | -1.15% | 5.17 µM [rising, full curve] | 0.651 µM [rising, full curve, poor fit]
26 | Cc1cccc(-c2nnc(NC(=O)c3ccc(Cl)cc3)o2)c1 | -27.3% | – | –
27 | Cc1nn(C(C)C(=O)NCc2ccco2)c(C)c1[N+](=O)[O-] (stereo not drawn) | -40.9% | 29.1 µM [falling, single point] | 29.1 µM [falling, single point]
28 | COc1ccc(C(=O)Nc2ccc(C(=O)N3CCC(C)CC3)cc2)cc1OC | 8.11% | – | –
29 | Cn1c(=O)c2c(-c3ccccc3)n(Cc3cccnc3)cc2n(C)c1=O | -4.1% | 5.17 µM [falling, single point] | 5.8 µM [falling, single point]
30 | COc1cc(OC)cc(N2CC(C)(C)C2=O)c1 | -20.5% | – | –
31 | CN(C)C(=O)c1ccc(NC(=O)c2cc(-n3cnnc3)ccc2Cl)cc1 | 1.92% | – | –
32 | CCC1=NN(C(=O)c2cccc(Br)c2)C(O)(c2ccc(Br)cc2)C1 (stereo not drawn) | – | 1.84 µM [falling, partial curve, poor fit] | 4.11 µM [falling, partial curve]
33 | O=C(O)c1ccc(NS(=O)(=O)c2cc(Cl)sc2Cl)cc1 | -12.7% | – | –
34 | CC(=O)Nc1ccc(NC(=O)c2ccccc2Nc2ccccc2)cc1 | 9.58% | – | –
35 | COc1ccc(-c2cc(C#N)nc(Oc3ccc(Cl)cc3)n2)cc1 | -31.8% | 2.31 µM [falling, full curve] | 4.61 µM [falling, full curve, poor fit]
36 | CCCN(CCC)S(=O)(=O)c1ccc(C(=O)NCc2n[nH]c(=S)n2-c2ccc(Cl)c(Cl)c2)cc1 | -9.23% | 0.184 µM [rising, single point] | 0.00517 µM [rising, full curve, poor fit]
37 | COCCCNC(=O)C1CCCCN1S(=O)(=O)c1ccc(F)cc1 (stereo not drawn) | 4.31% | – | –
38 | COc1ccc(CN2CCNC(=O)C2CC(=O)NCCSc2nccn2C)c(OC)c1 (stereo not drawn) | 7.44% | 4.61 µM [falling, full curve, poor fit] | –
39 | O=C(O)c1ccc(/C=N/N2CCN(C3c4ccccc4-c4ccccc43)CC2)cc1 | – | 2.91 µM [rising, single point] | –
40 | CC(C)n1nnnc1SCC(=O)N1CCN(C(=O)c2ccco2)CC1 | -16.9% | 16.4 µM [falling, partial curve] | –
41 | CC(C)CCNC(=O)Nc1ccc2c(c1)N(C)C(=O)CS2 | -17% | – | –
42 | Cc1ccc(/C=N/NC(=O)c2cc(-c3ccccc3)nc3ccccc23)o1 | -5.9% | – | 4.61 µM [falling, single point]

Row | Compound | cell number change | AC50 [1] | AC50 [2]
43 | CCC1CCCCN1C(=O)N[C@@H](CCSC)C(=O)OC (stereo partly drawn) | -27.4% | 4.11 µM [falling, full curve] | –
44 | CCN1CCc2nc(NC(=O)CC(c3ccccc3)c3ccccc3)sc2C1 | – | 29.1 µM [falling, partial curve, poor fit] | –
45 | O=C1NC2(CCCCC2)C(=O)N1/N=C/c1ccccc1Br | 9.04% | – | –
46 | CC(C)CNS(=O)(=O)c1ccc(S(=O)(=O)N2CCN(C3CCCC3)CC2)cc1 | 5.41% | 6.51 µM [rising, single point] | –
47 | O=C1C=C(N2CCOCC2)c2ccccc2C1=O | – | 1.3 µM [falling, full curve] | –
48 | CN(Cc1ccccc1)C(=C(Cl)Cl)/C(=C1/NCCN1C)[N+](=O)[O-] | -46.1% | 29.1 µM [falling, single point] | 16.4 µM [falling, single point]
49 | CC(=O)Nc1ccc(-c2nnn(CC(=O)c3ccccc3)n2)cc1Cl | 31.6% | – | 25.9 µM [rising, single point]
50 | C/C(=N\NC(=S)NC1CCCCC1)c1ccccc1 | -4.03% | 32.6 µM [rising, single point] | –
51 | O=C1CCC/C1=C\c1ccccc1 | -17% | 1.84 µM [falling, partial curve] | –
52 | COC(=O)C1(O)CC(C(C)C)=NN1C(=O)c1ccccc1 (stereo not drawn) | 10.4% | – | 0.731 µM [rising, partial curve, poor fit]
53 | Cc1ccc(CNc2nc3ccccc3n3nnnc23)cc1 | -4.8% | 0.184 µM [rising, full curve, poor fit] | –
54 | Cc1cccc(N(C(=O)CNC(=O)c2ccco2)C(C(=O)NC2CCCCC2)c2cccnc2)c1 (stereo not drawn) | 1.3% | – | –
55 | O=C(N/N=C/c1c[nH]c2ccccc12)c1ccncc1 | -40.3% | – | 0.58 µM [falling, full curve]
56 | NS(=O)(=O)c1cc(C(=O)Nc2ccc3c(c2)OCCCO3)ccc1Cl | -18.4% | – | –
57 | CCOc1cccc(/C=C/c2ccc3cccc(O)c3n2)c1O | -17.2% | 32.6 µM [falling, single point] | –
58 | Cc1cc(C)cc(OCC(O)CN2CCN(C(=O)c3ccco3)CC2)c1 (stereo not drawn) | -2.78% | – | –
59 | O=C(CCCN1C(=O)NC2(CCCC2)C1=O)N1CCN(S(=O)(=O)c2ccccc2)CC1 | -13.5% | 0.00461 µM [falling, full curve, poor fit] | –
60 | CC(Oc1ccc(Cl)cc1Cl)C(=O)NC1=NN(c2ccccc2)C(=O)C1 (stereo not drawn) | -4.69% | 23.1 µM [falling, partial curve] | –
61 | COc1ccc(CN(CC(=O)NCC2CCCO2)C(=O)CNS(=O)(=O)c2ccccc2)cc1 (stereo not drawn) | -8.57% | – | –
62 | CC(C)(C)NCC(O)Cn1cc(C=O)c2ccccc21 (stereo not drawn) | -11.4% | 0.116 µM [falling, full curve, poor fit] | 0.082 µM [falling, full curve, poor fit]
63 | CSc1cccc(NC(=O)CCC(=O)O)c1 | -35.1% | 32.6 µM [falling, single point] | 29.1 µM [falling, single point]

A draw from above in order of heavy-atom count, rising:
Row | Compound | cell number change | AC50 [1] | AC50 [2]
3 | CCCc1nnc(NC(=O)CC(C)c2ccccc2)s1 (stereo not drawn) | 25.3% | 6.51 µM [rising, single point] | –
48 | CN(Cc1ccccc1)C(=C(Cl)Cl)/C(=C1/NCCN1C)[N+](=O)[O-] | -46.1% | 29.1 µM [falling, single point] | 16.4 µM [falling, single point]
17 | Cc1ccc(S(=O)(=O)N2CCN(c3ccc(C(=O)N4CCOCC4)cc3[N+](=O)[O-])CC2)cc1 | -17.6% | 20.6 µM [falling, partial curve] | –
